Test results taken from the supplement of paper PMC8728848.
Some of the results follow.

What was measured:
Assay in all cases: glycan array binding signal (z-score within array); higher = stronger binding
Settings in all cases: glycan notation: IUPAC condensed, linker removed
[1] = biological target: GlcNAc(b1-2)Gal(b1-3)GalNAc
Outline: (§1)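 Arrays were curated from the Consortium for Functional Glycomics database, 3228 in total, and kept only where the protein sequence was available. Binding is expressed as a within-array Z-score. This score was averaged across arrays of the same protein sequence at different concentrations or buffers and across linkers, and negative values can be read as non-binding.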

[2] = biological target: GlcNAc(b1-2)Man(a1-3)[GlcNAc(b1-2)Man(a1-6)]Man(b1-4)GlcNAc(b1-4)GlcNAc
Outline: as §1

[3] = biological target: GlcNAc(b1-2)Man(a1-3)[GlcNAc(b1-2)Man(a1-6)]Man(b1-4)GlcNAc(b1-4)[Fuc(a1-6)]GlcNAc
Outline: as §1

[4] = biological target: GlcNAc(b1-2)Man(a1-3)[GlcNAc(b1-4)][GlcNAc(b1-2)Man(a1-6)]Man(b1-4)GlcNAc(b1-4)GlcNAc
Outline: as §1

[5] = biological target: GlcNAc(b1-2)Man(a1-3)[GlcNAc(b1-4)][GlcNAc(b1-2)Man(a1-6)]Man(b1-4)GlcNAc(b1-4)[Fuc(a1-6)]GlcNAc
Outline: as §1

[6] = biological target: GlcNAc(b1-2)[GlcNAc(b1-4)]Man(a1-3)[GlcNAc(b1-2)Man(a1-6)]Man(b1-4)GlcNAc(b1-4)GlcNAc
Outline: as §1

[7] = biological target: GlcNAc(b1-2)[GlcNAc(b1-4)]Man(a1-3)[GlcNAc(b1-4)][GlcNAc(b1-2)Man(a1-6)]Man(b1-4)GlcNAc(b1-4)GlcNAc
Outline: as §1

[8] = biological target: GlcNAc(b1-2)[GlcNAc(b1-4)]Man(a1-3)[GlcNAc(b1-4)][GlcNAc(b1-2)[GlcNAc(b1-6)]Man(a1-6)]Man(b1-4)GlcNAc(b1-4)GlcNAc
Outline: as §1

[9] = biological target: GlcNAc(b1-2)[GlcNAc(b1-4)]Man(a1-3)[GlcNAc(b1-4)][GlcNAc(b1-2)[GlcNAc(b1-6)]Man(a1-6)]Man(b1-4)GlcNAc(b1-4)[Fuc(a1-6)]GlcNAc
Outline: as §1

[10] = biological target: GlcNAc(b1-2)[GlcNAc(b1-6)]Man(a1-6)[GlcNAc(b1-2)Man(a1-3)]Man(b1-4)GlcNAc(b1-4)GlcNAc
Outline: as §1

[11] = biological target: GlcNAc(b1-2)[GlcNAc(b1-6)]Man(a1-6)[GlcNAc(b1-2)Man(a1-3)]Man(b1-4)GlcNAc(b1-4)[Fuc(a1-6)]GlcNAc
Outline: as §1

[12] = biological target: GlcNAc(b1-2)[GlcNAc(b1-6)]Man(a1-6)[GlcNAc(b1-4)][GlcNAc(b1-2)Man(a1-3)]Man(b1-4)GlcNAc(b1-4)GlcNAc
Outline: as §1

[13] = biological target: GlcNAc(b1-3)Fuc
Outline: as §1

[14] = biological target: GlcNAc(b1-3)Gal
Outline: as §1

[15] = biological target: GlcNAc(b1-3)Gal(b1-3)GalNAc
Outline: as §1

[16] = biological target: GlcNAc(b1-3)Gal(b1-4)Glc
Outline: as §1

[17] = biological target: GlcNAc(b1-3)Gal(b1-4)GlcNAc
Outline: as §1

[18] = biological target: GlcNAc(b1-3)Gal(b1-4)GlcNAc(b1-2)Man(a1-3)[GlcNAc(b1-3)Gal(b1-4)GlcNAc(b1-2)Man(a1-6)]Man(b1-4)GlcNAc(b1-4)GlcNAc
Outline: as §1

[19] = biological target: GlcNAc(b1-3)Gal(b1-4)GlcNAc(b1-2)Man(a1-3)[GlcNAc(b1-3)Gal(b1-4)GlcNAc(b1-2)Man(a1-6)]Man(b1-4)GlcNAc(b1-4)[Fuc(a1-6)]GlcNAc
Outline: as §1

[20] = biological target: GlcNAc(b1-3)Gal(b1-4)GlcNAc(b1-2)[GlcNAc(b1-3)Gal(b1-4)GlcNAc(b1-6)]Man(a1-6)[GlcNAc(b1-3)Gal(b1-4)GlcNAc(b1-2)Man(a1-3)]Man(b1-4)GlcNAc(b1-4)GlcNAc
Outline: as §1

[21] = biological target: GlcNAc(b1-3)Gal(b1-4)GlcNAc(b1-3)Gal(b1-4)GlcNAc
Outline: as §1

[22] = biological target: GlcNAc(b1-3)Gal(b1-4)GlcNAc(b1-3)Gal(b1-4)GlcNAc(b1-2)Man(a1-3)[GlcNAc(b1-3)Gal(b1-4)GlcNAc(b1-3)Gal(b1-4)GlcNAc(b1-2)Man(a1-6)]Man(b1-4)GlcNAc(b1-4)GlcNAc
Outline: as §1

[23] = biological target: GlcNAc(b1-3)Gal(b1-4)GlcNAc(b1-3)Gal(b1-4)GlcNAc(b1-2)Man(a1-3)[GlcNAc(b1-3)Gal(b1-4)GlcNAc(b1-3)Gal(b1-4)GlcNAc(b1-2)Man(a1-6)]Man(b1-4)GlcNAc(b1-4)[Fuc(a1-6)]GlcNAc
Outline: as §1

[24] = biological target: GlcNAc(b1-3)Gal(b1-4)GlcNAc(b1-3)Gal(b1-4)GlcNAc(b1-2)[GlcNAc(b1-3)Gal(b1-4)GlcNAc(b1-3)Gal(b1-4)GlcNAc(b1-6)]Man(a1-6)[GlcNAc(b1-3)Gal(b1-4)GlcNAc(b1-3)Gal(b1-4)GlcNAc(b1-2)Man(a1-3)]Man(b1-4)GlcNAc(b1-4)[Fuc(a1-6)]GlcNAc
Outline: as §1

[25] = biological target: GlcNAc(b1-3)Gal(b1-4)GlcNAc(b1-3)Gal(b1-4)GlcNAc(b1-3)Gal(b1-4)GlcNAc(b1-2)Man(a1-3)[GlcNAc(b1-3)Gal(b1-4)GlcNAc(b1-3)Gal(b1-4)GlcNAc(b1-3)Gal(b1-4)GlcNAc(b1-2)Man(a1-6)]Man(b1-4)GlcNAc(b1-4)GlcNAc
Outline: as §1

[26] = biological target: GlcNAc(b1-3)Gal(b1-4)GlcNAc(b1-3)Gal(b1-4)GlcNAc(b1-3)Gal(b1-4)GlcNAc(b1-2)Man(a1-3)[GlcNAc(b1-3)Gal(b1-4)GlcNAc(b1-3)Gal(b1-4)GlcNAc(b1-3)Gal(b1-4)GlcNAc(b1-2)Man(a1-6)]Man(b1-4)GlcNAc(b1-4)[Fuc(a1-6)]GlcNAc
Outline: as §1

[27] = biological target: GlcNAc(b1-3)Gal(b1-4)GlcNAc(b1-3)Gal(b1-4)GlcNAc(b1-3)Gal(b1-4)GlcNAc(b1-2)[GlcNAc(b1-3)Gal(b1-4)GlcNAc(b1-3)Gal(b1-4)GlcNAc(b1-3)Gal(b1-4)GlcNAc(b1-6)]Man(a1-6)[GlcNAc(b1-3)Gal(b1-4)GlcNAc(b1-3)Gal(b1-4)GlcNAc(b1-3)Gal(b1-4)GlcNAc(b1-2)Man(a1-3)]Man(b1-4)GlcNAc(b1-4)[Fuc(a1-6)]GlcNAc
Outline: as §1

[28] = biological target: GlcNAc(b1-3)Gal(b1-4)GlcNAc(b1-3)Gal(b1-4)GlcNAc(b1-3)Gal(b1-4)GlcNAc(b1-3)Gal(b1-4)GlcNAc(b1-2)Man(a1-3)[GlcNAc(b1-3)Gal(b1-4)GlcNAc(b1-3)Gal(b1-4)GlcNAc(b1-3)Gal(b1-4)GlcNAc(b1-3)Gal(b1-4)GlcNAc(b1-2)Man(a1-6)]Man(b1-4)GlcNAc(b1-4)GlcNAc
Outline: as §1

[29] = biological target: GlcNAc(b1-3)Gal(b1-4)GlcNAc(b1-3)Gal(b1-4)GlcNAc(b1-3)Gal(b1-4)GlcNAc(b1-3)Gal(b1-4)GlcNAc(b1-2)Man(a1-3)[GlcNAc(b1-3)Gal(b1-4)GlcNAc(b1-3)Gal(b1-4)GlcNAc(b1-3)Gal(b1-4)GlcNAc(b1-3)Gal(b1-4)GlcNAc(b1-2)Man(a1-6)]Man(b1-4)GlcNAc(b1-4)[Fuc(a1-6)]GlcNAc
Outline: as §1

[30] = biological target: GlcNAc(b1-3)Gal(b1-4)GlcNAc(b1-3)Gal(b1-4)GlcNAc(b1-3)Gal(b1-4)GlcNAc(b1-3)Gal(b1-4)GlcNAc(b1-2)[GlcNAc(b1-3)Gal(b1-4)GlcNAc(b1-3)Gal(b1-4)GlcNAc(b1-3)Gal(b1-4)GlcNAc(b1-3)Gal(b1-4)GlcNAc(b1-6)]Man(a1-6)[GlcNAc(b1-3)Gal(b1-4)GlcNAc(b1-3)Gal(b1-4)GlcNAc(b1-3)Gal(b1-4)GlcNAc(b1-3)Gal(b1-4)GlcNAc(b1-2)Man(a1-3)]Man(b1-4)GlcNAc(b1-4)[Fuc(a1-6)]GlcNAc
Outline: as §1

[31] = biological target: GlcNAc(b1-3)Gal(b1-4)GlcNAc(b1-3)Gal(b1-4)GlcNAc(b1-3)GalNAc
Outline: as §1

[32] = biological target: GlcNAc(b1-3)Gal(b1-4)GlcNAc(b1-3)GalNAc
Outline: as §1

[33] = biological target: GlcNAc(b1-3)Gal(b1-4)GlcNAc(b1-3)[GlcNAc(b1-3)Gal(b1-4)GlcNAc(b1-3)]GalNAc
Outline: as §1

[34] = biological target: GlcNAc(b1-3)Gal(b1-4)GlcNAc(b1-6)[Gal(b1-3)]GalNAc
Outline: as §1

[35] = biological target: GlcNAc(b1-3)Gal(b1-4)GlcNAc(b1-6)[GlcNAc(b1-3)Gal(b1-3)]GalNAc
Outline: as §1

[36] = biological target: GlcNAc(b1-3)Gal(b1-4)GlcNAc(b1-6)[GlcNAc(b1-3)]Gal(b1-4)GlcNAc
Outline: as §1

[37] = biological target: GlcNAc(b1-3)GalNAc
Outline: as §1

B1: PX14404-bvu-534-26-534 (Bacteroides vulgatus) (protein)
chain: EDPRGKLTPENFFSTQDELNMSIYALYQKVNLSQVYTNMQLPQWQGDDITTNPGSNKQPAAEMDKFAAANNNKGVKDAWNMHYAIVKAANLIIQGASKTPTTQDEINIALGQAKFWRAYAYFTLVRLWGPLPMNLDNVNDDYTKPLSPVEEVYGHIVQDLTEAEAVLPTGYSGSPRFLNGVNVYVTRQAAKSTLAAVYMAMAGWPMNKTEYYAKAAEKAKEVIEGVNRGEYEYKLDKDYKDVYAMSNNYNNETVLGINYSPFVDWAQDSELTSCNQFESLGGWGDAWGEIRFWKEFPDGPRKDATYDPKIRLKDGTLVDWWELKEDGTPVVPEHHPMFSIFSVNWDPASKVNTSAPYDYTKPASQNMCNDHRHRIIRYSEVLLWYAEAKARTGQTDELAFKCLNDVRERAGLEPLTGLSADDLAEAAYKEHGWEVAGYWVALVTRRADQFRMNRLKDTFKERAENTAVEVADGILVKESVEYTNRTWSDNLMYLPYPDMDSQKNPNLVR
glycan array binding signal (z-score) [1]: -0.047
glycan array binding signal (z-score) [2]: -0.142
glycan array binding signal (z-score) [3]: 1.46
glycan array binding signal (z-score) [4]: -0.52
glycan array binding signal (z-score) [5]: -0.813
glycan array binding signal (z-score) [6]: -1.12
glycan array binding signal (z-score) [7]: -0.525
glycan array binding signal (z-score) [8]: -0.336
glycan array binding signal (z-score) [9]: -1.45
glycan array binding signal (z-score) [10]: 0.165
glycan array binding signal (z-score) [11]: -0.822
glycan array binding signal (z-score) [12]: -1.21
glycan array binding signal (z-score) [13]: -0.292
glycan array binding signal (z-score) [14]: -0.05
glycan array binding signal (z-score) [15]: -0.231
glycan array binding signal (z-score) [16]: -0.311
glycan array binding signal (z-score) [17]: -1.11
glycan array binding signal (z-score) [18]: -0.394
glycan array binding signal (z-score) [19]: -0.325
glycan array binding signal (z-score) [20]: 0.022
glycan array binding signal (z-score) [21]: -0.272
glycan array binding signal (z-score) [22]: -0.143
glycan array binding signal (z-score) [23]: 0.213
glycan array binding signal (z-score) [24]: 0.377
glycan array binding signal (z-score) [25]: -0.471
glycan array binding signal (z-score) [26]: -0.165
glycan array binding signal (z-score) [27]: 0.433
glycan array binding signal (z-score) [28]: -1.33
glycan array binding signal (z-score) [29]: 0.42
glycan array binding signal (z-score) [30]: -0.469
glycan array binding signal (z-score) [31]: -1.04
glycan array binding signal (z-score) [32]: 0.026
glycan array binding signal (z-score) [33]: -0.393
glycan array binding signal (z-score) [34]: -0.575
glycan array binding signal (z-score) [35]: 0.662
glycan array binding signal (z-score) [36]: -0.966
glycan array binding signal (z-score) [37]: -0.678
